This assay addresses BKPyV agnoprotein (GFP-agnoprotein and GST-agnoprotein, co-expressed in HEK293 cells) (BK polyomavirus (BKPyV)) (UniProt P03085). Kind of assay: pull-down.

No constants are given. Whether binding was seen depends on the method and setting. Binding seen in cells or lysates may run through a third protein. Some binding calls cover weakened binding; strength is not graded here. Where a sequence is shown, tags or fusion partners need not be part of it.

B1: BKPyV agnoprotein (GFP-agnoprotein and GST-agnoprotein, co-expressed in HEK293 cells) (protein, UniProt P03085 1-66)
chain: MVLRQLSRQASVKVGKTWTGTKKRAQRIFIFILELLLEFCRGEDSVDGKNKSTTALPAVKDSVKDS
Consider B1, for which the binding result is “binds”.

The values are drawn from article doi:10.1101/2023.01.30.526200.
